Results as given in PMC9329959, “A Feedback Regulatory Loop Involving dTrbd/dTak1 in Controlling IMD Signaling in Drosophila Melanogaster” (Frontiers in Immunology, 2022).
Results are given in words; binding and its absence hold for the method and conditions named. Some entries that bind do so weakly or less than the wild type. For part of these data: Tags and fused reporters may be left off the sequences shown.

Assays:
[1] = molecular target: Myc-dTrbd^FL (Drosophila melanogaster) (UniProt Q9VH90); experiment: SDD-AGE; lysates of transfected S2 cells (50 mM Tris-HCl pH 7.5, 150 mM NaCl, 0.5% Triton X-100, 10% glycerol); 1.5% agarose gel with 0.1% SDS; immunoblot
[2] = molecular target: dTrbd (endogenous, fat body) (Drosophila melanogaster (endogenous in w1118 adult fat bodies)) (UniProt Q9VH90); experiment: SDD-AGE; fat bodies of male w1118 adults 0, 6 and 12 h after infection with E. coli (also Relish^E20 mutants); immunoblot
[3] = molecular target: T1, GST-tagged dTrbd^FL (Drosophila melanogaster), Q9VH90; experiment: pull-down; GST pull-down: purified proteins incubated with Glutathione Sepharose 4B at 4°C for 3 h, washed with PBS with 1% TritonX-100 3 times, Western blot; both purified; conditions: remark: other sources report otherwise
T1 chain: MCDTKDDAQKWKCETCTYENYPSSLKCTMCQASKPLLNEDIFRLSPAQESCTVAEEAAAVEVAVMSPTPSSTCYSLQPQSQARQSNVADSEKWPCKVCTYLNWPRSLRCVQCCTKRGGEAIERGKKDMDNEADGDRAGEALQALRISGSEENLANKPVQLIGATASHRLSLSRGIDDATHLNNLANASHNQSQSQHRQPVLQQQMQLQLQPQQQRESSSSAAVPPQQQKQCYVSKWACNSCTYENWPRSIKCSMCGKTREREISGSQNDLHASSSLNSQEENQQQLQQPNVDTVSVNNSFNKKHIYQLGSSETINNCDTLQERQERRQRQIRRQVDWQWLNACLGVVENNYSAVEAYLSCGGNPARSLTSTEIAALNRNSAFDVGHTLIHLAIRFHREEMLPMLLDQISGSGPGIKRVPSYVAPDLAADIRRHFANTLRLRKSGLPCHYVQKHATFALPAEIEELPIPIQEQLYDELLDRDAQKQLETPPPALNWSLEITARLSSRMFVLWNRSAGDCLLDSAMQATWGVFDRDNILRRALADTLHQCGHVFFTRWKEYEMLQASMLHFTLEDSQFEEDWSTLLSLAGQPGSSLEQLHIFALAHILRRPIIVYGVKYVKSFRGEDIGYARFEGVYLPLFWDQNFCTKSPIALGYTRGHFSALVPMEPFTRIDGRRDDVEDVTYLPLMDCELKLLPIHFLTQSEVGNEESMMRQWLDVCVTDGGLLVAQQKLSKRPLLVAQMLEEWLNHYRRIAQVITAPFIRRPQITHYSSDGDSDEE

B1: Myc-dTrbd^FL (enzyme, UniProt Q9VH90 1-778)
chain: MCDTKDDAQKWKCETCTYENYPSSLKCTMCQASKPLLNEDIFRLSPAQESCTVAEEAAAVEVAVMSPTPSSTCYSLQPQSQARQSNVADSEKWPCKVCTYLNWPRSLRCVQCCTKRGGEAIERGKKDMDNEADGDRAGEALQALRISGSEENLANKPVQLIGATASHRLSLSRGIDDATHLNNLANASHNQSQSQHRQPVLQQQMQLQLQPQQQRESSSSAAVPPQQQKQCYVSKWACNSCTYENWPRSIKCSMCGKTREREISGSQNDLHASSSLNSQEENQQQLQQPNVDTVSVNNSFNKKHIYQLGSSETINNCDTLQERQERRQRQIRRQVDWQWLNACLGVVENNYSAVEAYLSCGGNPARSLTSTEIAALNRNSAFDVGHTLIHLAIRFHREEMLPMLLDQISGSGPGIKRVPSYVAPDLAADIRRHFANTLRLRKSGLPCHYVQKHATFALPAEIEELPIPIQEQLYDELLDRDAQKQLETPPPALNWSLEITARLSSRMFVLWNRSAGDCLLDSAMQATWGVFDRDNILRRALADTLHQCGHVFFTRWKEYEMLQASMLHFTLEDSQFEEDWSTLLSLAGQPGSSLEQLHIFALAHILRRPIIVYGVKYVKSFRGEDIGYARFEGVYLPLFWDQNFCTKSPIALGYTRGHFSALVPMEPFTRIDGRRDDVEDVTYLPLMDCELKLLPIHFLTQSEVGNEESMMRQWLDVCVTDGGLLVAQQKLSKRPLLVAQMLEEWLNHYRRIAQVITAPFIRRPQITHYSSDGDSDEE
[1]
  binding: binds

B2: dTrbd (endogenous, fat body) (enzyme, UniProt Q9VH90 1-778)
chain: MCDTKDDAQKWKCETCTYENYPSSLKCTMCQASKPLLNEDIFRLSPAQESCTVAEEAAAVEVAVMSPTPSSTCYSLQPQSQARQSNVADSEKWPCKVCTYLNWPRSLRCVQCCTKRGGEAIERGKKDMDNEADGDRAGEALQALRISGSEENLANKPVQLIGATASHRLSLSRGIDDATHLNNLANASHNQSQSQHRQPVLQQQMQLQLQPQQQRESSSSAAVPPQQQKQCYVSKWACNSCTYENWPRSIKCSMCGKTREREISGSQNDLHASSSLNSQEENQQQLQQPNVDTVSVNNSFNKKHIYQLGSSETINNCDTLQERQERRQRQIRRQVDWQWLNACLGVVENNYSAVEAYLSCGGNPARSLTSTEIAALNRNSAFDVGHTLIHLAIRFHREEMLPMLLDQISGSGPGIKRVPSYVAPDLAADIRRHFANTLRLRKSGLPCHYVQKHATFALPAEIEELPIPIQEQLYDELLDRDAQKQLETPPPALNWSLEITARLSSRMFVLWNRSAGDCLLDSAMQATWGVFDRDNILRRALADTLHQCGHVFFTRWKEYEMLQASMLHFTLEDSQFEEDWSTLLSLAGQPGSSLEQLHIFALAHILRRPIIVYGVKYVKSFRGEDIGYARFEGVYLPLFWDQNFCTKSPIALGYTRGHFSALVPMEPFTRIDGRRDDVEDVTYLPLMDCELKLLPIHFLTQSEVGNEESMMRQWLDVCVTDGGLLVAQQKLSKRPLLVAQMLEEWLNHYRRIAQVITAPFIRRPQITHYSSDGDSDEE
[2]
  binding: binds

B3: His-tagged dTak1, Q9V3Q6 1-678 (enzyme)
chain: MATASLDALQAAYVDFSEITLREKVGHGSYGVVCKAVWRDKLVAVKEFFASAEQKDIEKEVKQLSRVKHPNIIALHGISSYQQATYLIMEFAEGGSLHNFLHGKVKPAYSLAHAMSWARQCAEGLAYLHAMTPKPLIHRDVKPLNLLLTNKGRNLKICDFGTVADKSTMMTNNRGSAAWMAPEVFEGSKYTEKCDIFSWAIVLWEVLSRKQPFKGIDNAYTIQWKIYKGERPPLLTTCPKRIEDLMTACWKTVPEDRPSMQYIVGVMHEIVKDYTGADKALEYTFVNQQIVTKESDGTVAAQPDSLSSQEGELSPSSTQLTPTTAANANVNAIAISKTTTSSMTENTSSTSSDITPTNSGQLDNNPLFYMVTNRWDAIPEEESNESRNDSFNLTSSAEATQRLETIRNGMILMACKPMEQLTLDVEANGFDLSPSESSSSSTNAKSDGRERLTVTDTKPVMMTTDLSNNNGGIHAHSNGLLSHANGWQARDEELQEQEHEQEIVNSLDVDVDPDEDENDGTEQSLAEILDPELQPEPPIPNDAESQLIYRDHRHMAKEYLSVDTNLYYAQDFKDKLIVQMDRTEREQKQELLRKMKDKEGLQSLYNNLQQQYASRQLAAGHHPQPHPHPHPNQLQHPHSHPPMHFLQDEGCGLLPGSVCGGSESVEEGWVVIPPHHNA
[3]
  binding: no binding
